Experimental data as given in patent EP4775574A1, “FURAN RING-CONTAINING COMPOUND, PHARMACEUTICAL COMPOSITION THEREOF, AND USE THEREOF” (Wuhan Xirui Pharmaceutical Technology Co., Ltd, priority 2023, dated 2025).

Tested on: KM mouse acetic acid-induced writhing model
Test: Analgesic efficacy in mouse acetic acid-induced writhing model
Assay type: in vivo, KM mice
Conditions: 100 mg/kg intragastric, single dose, writhes within 20 min, p < 0.05 vs solvent control
Description: 1. Objective: The analgesic efficacy of the example was evaluated in a KM mouse acetic acid-induced writhing model. 2. Experimental methods: 2.1 Experimental drugs: The compounds in examples of the present disclosure and reference compound were self-prepared. Naproxen, Shanghai Yuanye Bio-Technology Co., Ltd., Catalog No. S63435. It was prepared using a solvent (Tween 80 + 0.5% MC (v:v = 1:99 pH = 3)). 2.2 Experimental animals: Male KM mice were purchased from Hubei Provincial Center for Disease Control and Prevention (Hubei Provincial Academy of Preventive Medicine), weighing 20 to 25 g at the time of purchase. 2.3 Experimental grouping: Table 6: Efficacy test grouping of compounds in the acetic acid-induced writhing model
2.5 Data collection and analysis • Data were collected using Excel software. • Data were analyzed using Prism (Graph pad software, Inc.) software. 3. Results Table 7: Analgesic efficacy results of compounds in the mouse acetic acid-induced writhing pain model

## COc1ccc2cc([C@H](C)C(=O)O)ccc2c1 [Naproxen]
First group set (solvent control 16.11 ± 5.84)
  Number of writhes: 8.50 ± 4.50
Second group set (solvent control 20.11 ± 3.55)
  Number of writhes: 5.86 ± 3.53
